Experimental data from PubChem BioAssay AID662 (National Center for Advancing Translational Sciences (NCATS), 2007).
Several values for one entry are separate records, joined by “and”; a condition that tells them apart may be missing. Equal values may be shown once. The list shows a part of the results. The main result of the screen is listed elsewhere. These columns were measured beside it and carry no call. Most of these compounds were active or inconclusive in the main read-out, so they are no random draw. Potencies come from curve fits of mixed quality, noted in brackets.

test: Cell signaling CRE-BLA (Fsk stim); details: CHO CRE-bla reporter (cAMP response element driving beta-lactamase), forskolin EC10, beta-lactamase ratio; measured here: 460 nm blue channel
How it was run: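 Using CellSensor CRE-bla CHO cells in Opti-MEM with 0.5% dialyzed FBS, compounds were titrated with EC10 NKH 477 for 3 h at 37 °C. CCF4 ratio (460/530 nm) gave %Activity; AC50 derived.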

SMILES | AC50
CC(C)(C)c1cc(Cc2ccccc2)[nH]n1 | 10 µM [rising, partial curve]
COC(=O)c1ccc(COc2ccc3c(C)c(C)c(=O)oc3c2)o1 | 0.00316 µM [falling, full curve, poor fit]
CCn1c2ccccc2c2nnc(SCC(=O)c3ccccc3)nc21 | 3.16 µM [rising, partial curve]
COc1cc2ccc(=O)oc2c(O)c1OCC=C(C)C | 15.8 µM [rising, partial curve] and 10 µM [rising, single point]
COc1ccc(NC(=O)Cn2nnc(C(=O)NCc3ccccc3)c2N)cc1Cl | 2.51 µM [falling, partial curve, poor fit]
Cn1c(=O)c2c(ncn2CC(=O)N2CCN(c3ccccc3F)CC2)n(C)c1=O | 0.398 µM [rising, partial curve]
Cn1c(N2CCCC2)nc2c1c(=O)n(Cc1ccc(F)cc1)c(=O)n2C | 3.16 µM [rising, full curve]
O=C(Cc1ccccc1)NCCSCc1ccco1 | 0.631 µM [falling, full curve, poor fit]
CCOC(=O)c1cnc2nc(C)[nH]n2c1=O | 25.1 µM [rising, partial curve, poor fit]
Cc1sc2ncnc(SCC(=O)NC(=O)NCc3ccco3)c2c1C | 12.6 µM [rising, partial curve]
CCn1ncc(Br)c1C(=O)Nc1ccc(F)cc1F | 10 µM [rising, partial curve]
O=C(O)CCc1ccc(-c2ccc(Br)cc2)n1CC(=O)O | 1 µM [rising, single point]
O=C(Nc1ccc(Cl)cc1)c1ccsn1 | 0.0501 µM [falling, full curve, poor fit]
Cc1c(NC(=O)C2CCCNC2=O)c(=O)n(-c2ccccc2)n1C (stereo not drawn) | 31.6 µM [falling, partial curve]
c1ccc2c(c1)oc1c(Nc3ccc4c(c3)OCO4)ncnc12 | 1.58 µM [rising, full curve]
CCCc1cc(=O)oc2cc(C)c3c(C)coc3c12 | 10 µM [rising, partial curve]
O=C1OC2(c3ccc(O)cc3Oc3cc(O)ccc32)c2c1c(-c1ccccc1)c(-c1ccccc1)c(-c1ccccc1)c2-c1ccccc1 | 0.00794 µM [falling, full curve, poor fit]
COc1cc2c(cc1OC)-c1cc3nc4ccccc4nc3n1C(C)(C)C2 | 15.8 µM [rising, partial curve]
COc1cccc(NC(=O)CSc2nnc(-c3cc(-c4ccccn4)nc4ccccc34)o2)c1 | 3.98 µM [rising, single point]
CCOc1cc2[nH]c(=O)n(CCCCC(=O)NCc3ccco3)c(=O)c2cc1OCC | 0.1 µM [rising, full curve]
O=C(COC(=O)CNC(=O)c1ccco1)NCCN1C(=O)CSC1=O | 0.1 µM [falling, full curve, poor fit]
CCN(CC)c1ncnc2c1cnn2C | 12.6 µM [rising, single point]
Cc1ccc(CN2C(=O)C(C)(C)Oc3ccc(C(=O)N4CCCCC4)cc32)cc1 | 12.6 µM [rising, partial curve]

SMILES | AC50
Cc1cccn2c(=O)c3cc(C(=O)NCC4CCCO4)n(C)c3nc12 (stereo not drawn) | 2 µM [rising, partial curve]
Cc1ccc(O)c(CC(C)C)n1 | 3.16 µM [falling, full curve, poor fit]
O=C(O)c1cc(S(=O)(=O)O)ccc1O | 25.1 µM [rising, single point]
COc1ccccc1CNc1ncnc2ccc(-c3ccc4c(c3)OCO4)cc12 | 6.31 µM [rising, partial curve]
Cc1cc(NC(=O)CSc2nc(C(C)C)nc3c2c(=O)n(C)c(=O)n3C)no1 | 7.94 µM [rising, partial curve]
Nc1cccc2cnccc12 | 5.01 µM [falling, partial curve, poor fit]
CC(=NCCN1CCOCC1)C1=C(O)c2ccccc2C1=O | 12.6 µM [rising, single point]
COc1ccc(CCNC(=O)c2cc(-c3cc(C)c(C)cc3O)n[nH]2)cc1OC | 0.794 µM [rising, partial curve]
CN(C)c1ccc(CN2CCCCCC2)cc1 | 0.0631 µM [falling, full curve]
O=C(Nn1cnnc1)c1cc(-c2ccccn2)nc2ccccc12 | 0.158 µM [falling, full curve, poor fit]
CCOC(=O)c1oc2c(CN3CCCCC3C)c(O)ccc2c(=O)c1-c1ccc(OC)c(OC)c1 (stereo not drawn) | 25.1 µM [rising, single point]
CN1CCN(c2nc(-c3cccc(C#N)c3)nc3ccccc23)CC1 | 6.31 µM [rising, partial curve]
Cc1cccn2c(=O)c3cc(C(=O)N4CCc5ccccc54)n(C)c3nc12 | 0.126 µM [rising, full curve]
COc1ccc(CNc2nc(-c3ccccc3CN(C)C)nc3ccccc23)c(OC)c1 | 20 µM [rising, single point]
CCSc1nnc(NC(=O)CCNS(=O)(=O)c2cc(Br)cnc2N)s1 | 12.6 µM [falling, single point]
O=C1CCCCCC1C1(O)C(=O)Nc2ccc(Br)cc21 (stereo not drawn) | 1 µM [falling, partial curve]
c1csc(-c2cnc3ccccc3n2)c1 | 12.6 µM [rising, single point]
C=CCn1c(=O)/c(=C/c2ccc(Cl)cc2)s/c1=C(/C#N)c1nnc2n1CCCCC2 | 12.6 µM [rising, single point]
CCC(C)(C)NC(=O)CN(C(=O)c1snc(C(N)=O)c1N)c1ccc2c(c1)OCCO2 | 3.98 µM [rising, partial curve]
c1ccc(N2CCN(CCCOc3ccc4c(c3)OCO4)CC2)cc1 | 12.6 µM [rising, partial curve]
CCOc1ccccc1NC(=O)CSc1nnc(-c2ccccc2Cl)n1Cc1ccco1 | 25.1 µM [falling, single point]
COC(=O)c1cc(CSc2nnc(NC3CCCCC3)s2)oc1C | 0.794 µM [rising, full curve]
NC(=O)c1cc2ccc(O)cc2oc1=Nc1ccccc1 | 12.6 µM [rising, partial curve]

SMILES | AC50
COc1cccc(OCc2nc3ncc(Br)cc3[nH]2)c1 | 12.6 µM [rising, single point]
CCn1c(SCC(=O)N2CCc3ccccc3C2)nc2c1c(=O)n(C)c(=O)n2C | 12.6 µM [rising, single point]
COC(=O)c1ccccc1NC(=O)c1cnn2c(C(F)F)cc(C3CC3)nc12 | 3.16 µM [rising, full curve]
CC(=O)Nc1cccc(-c2nnc(SCc3ccccc3C#N)n2C)c1 | 3.98 µM [rising, single point]
CNc1nc(-c2ccccc2CN(C)C)nc2ccccc12 | 10 µM [rising, partial curve]
CCOc1cc2c(cc1C(C)(C)C)NC(=O)CS2 | 15.8 µM [rising, partial curve, poor fit]
Fc1ccc(Nc2nc(-c3ccoc3)nc3ccccc23)cc1 | 5.01 µM [rising, partial curve]
COCC(C)n1c(SCC(=O)NC(=O)Nc2ccc3c(c2)OCCO3)nc2ccccc2c1=O (stereo not drawn) | 7.94 µM [rising, partial curve]
CCOC(=O)CC(=O)CSc1nc(C)cc(-c2cccnc2)c1C#N | 12.6 µM [rising, partial curve]
c1ccc(-c2nc(CSc3nnc(-c4cccs4)o3)cs2)cc1 | 3.98 µM [falling, partial curve]
COc1cccc(C(=O)N(CN2CCCC2=O)c2cccc(Cl)c2)c1OC | 25.1 µM [rising, single point]
CCOP(=O)(c1c(F)c(F)c(F)c(F)c1F)C1(O)CCCCC1 (stereo not drawn) | 2.51 µM [falling, partial curve]
NC(=O)c1ccsc1NC(=O)c1nc(-c2ccccc2)n(-c2ccccc2)n1 | 25.1 µM [falling, single point]
COc1ccc(-n2c(=O)c(-c3cccs3)nc3cnc(Nc4cccc(OC)c4)nc32)cc1 | 1.26 µM [rising, full curve]
O=C(O)c1cc(-c2cccnc2)nn1-c1ccccn1 | 0.00316 µM [falling, full curve, poor fit]
Cc1nc2c(OCc3ccccc3)cccn2c1CC#N | 0.0501 µM [rising, full curve, poor fit]
CCCCOC(=O)Nc1sc2c(c1C(=O)OC)CCC2 | 20 µM [rising, single point]
CCOC(=O)C1CCN(Cc2ccc(OC)c(C)c2OC)CC1 | 0.00398 µM [falling, full curve, poor fit]
O=C(CCC1=NS(=O)(=O)c2ccccc2N1)NC1CCCCCCC1 | 10 µM [falling, single point]
Cc1cccc(NC(=O)C2CCN(S(=O)(=O)c3cccc4cccnc34)CC2)c1 | 10 µM [falling, single point]
COCCOC(=O)C1=C(C)NC(C)=C(C(=O)OC(C)C)[C@@H]1c1cccc([N+](=O)[O-])c1 | 1.58 µM [rising, partial curve]
CCC(C)(NC(=O)CNC(C)=O)C(=O)NC1CCCCC1 (stereo not drawn) | 20 µM [falling, partial curve]

Three compounds drawn at random from the list so far, as already listed:
SMILES | AC50
Fc1ccc(Nc2nc(-c3ccoc3)nc3ccccc23)cc1 | 5.01 µM [rising, partial curve]
CCCCOC(=O)Nc1sc2c(c1C(=O)OC)CCC2 | 20 µM [rising, single point]
COC(=O)c1ccccc1NC(=O)c1cnn2c(C(F)F)cc(C3CC3)nc12 | 3.16 µM [rising, full curve]
